Data: article PMC12059635
Read-outs that look alike come from different tables or passages of the source. These are yes or no findings as the source states them, for the method shown. Binding seen in cells or lysates may run through a third protein. Some entries that bind do so weakly or less than the wild type.

Chains of the proteins cited; added tags and fusions are not shown.
UniProt Q8C2B3: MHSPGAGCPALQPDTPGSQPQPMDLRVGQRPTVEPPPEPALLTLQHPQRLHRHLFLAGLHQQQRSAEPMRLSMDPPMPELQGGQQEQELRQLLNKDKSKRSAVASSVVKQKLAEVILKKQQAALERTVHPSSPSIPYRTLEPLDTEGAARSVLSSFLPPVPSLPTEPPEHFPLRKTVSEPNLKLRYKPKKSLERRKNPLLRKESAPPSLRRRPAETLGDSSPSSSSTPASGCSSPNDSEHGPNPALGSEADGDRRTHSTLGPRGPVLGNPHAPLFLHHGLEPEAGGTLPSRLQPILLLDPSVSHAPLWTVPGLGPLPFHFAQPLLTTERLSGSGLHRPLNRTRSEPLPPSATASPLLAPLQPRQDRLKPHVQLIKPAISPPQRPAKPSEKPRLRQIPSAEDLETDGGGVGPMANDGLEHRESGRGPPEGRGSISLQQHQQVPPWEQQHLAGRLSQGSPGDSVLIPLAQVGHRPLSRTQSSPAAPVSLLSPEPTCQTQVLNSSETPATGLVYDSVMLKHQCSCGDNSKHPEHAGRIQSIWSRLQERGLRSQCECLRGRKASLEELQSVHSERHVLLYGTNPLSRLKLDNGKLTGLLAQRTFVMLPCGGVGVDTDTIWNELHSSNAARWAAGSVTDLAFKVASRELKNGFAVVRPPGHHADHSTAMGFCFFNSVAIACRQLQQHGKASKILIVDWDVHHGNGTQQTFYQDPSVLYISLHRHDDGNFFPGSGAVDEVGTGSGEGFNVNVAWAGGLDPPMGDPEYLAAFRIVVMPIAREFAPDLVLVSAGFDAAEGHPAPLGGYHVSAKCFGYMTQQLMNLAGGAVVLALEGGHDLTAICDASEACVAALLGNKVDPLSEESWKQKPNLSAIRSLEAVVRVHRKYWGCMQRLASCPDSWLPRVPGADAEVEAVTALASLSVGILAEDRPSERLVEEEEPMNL
UniProt Q61881: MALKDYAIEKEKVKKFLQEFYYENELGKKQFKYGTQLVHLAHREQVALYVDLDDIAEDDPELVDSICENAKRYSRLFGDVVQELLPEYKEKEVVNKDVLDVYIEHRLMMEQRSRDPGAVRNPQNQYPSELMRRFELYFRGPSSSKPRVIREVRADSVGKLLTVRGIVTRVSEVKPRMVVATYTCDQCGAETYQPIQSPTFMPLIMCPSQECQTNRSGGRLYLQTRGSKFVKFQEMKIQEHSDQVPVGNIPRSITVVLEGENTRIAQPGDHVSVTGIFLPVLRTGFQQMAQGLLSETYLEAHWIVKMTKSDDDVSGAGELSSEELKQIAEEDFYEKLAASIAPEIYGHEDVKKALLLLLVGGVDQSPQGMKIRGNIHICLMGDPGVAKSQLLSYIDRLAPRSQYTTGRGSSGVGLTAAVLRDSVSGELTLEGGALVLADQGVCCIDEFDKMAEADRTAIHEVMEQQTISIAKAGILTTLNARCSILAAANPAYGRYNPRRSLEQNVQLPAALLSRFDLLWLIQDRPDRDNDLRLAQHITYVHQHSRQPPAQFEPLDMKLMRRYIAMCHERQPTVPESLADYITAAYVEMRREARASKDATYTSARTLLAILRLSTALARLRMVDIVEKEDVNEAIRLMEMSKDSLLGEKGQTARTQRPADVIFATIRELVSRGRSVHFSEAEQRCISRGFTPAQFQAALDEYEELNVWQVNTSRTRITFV

Assays:
[1] = biological target: Histone deacetylase 7 (HDAC7), wild type (mouse) (UniProt Q8C2B3); experiment: co-IP; NMCMs transfected with Hdac7 adenoviruses; Pierce IP Lysis Buffer, 1 mg whole lysate; magnetic beads with mouse FLAG antibody, overnight incubation; immunoblot with HDAC7, MEF2D, MCM3, MCM5 and MCM7 antibodies
[2] = biological target: Histone deacetylase 7 (HDAC7), wild type (mouse) (UniProt Q8C2B3); experiment: as above; remark: listed apart in the source

binding [1] | binding [2] | Molecule
binds | – | Minichromosome maintenance protein 7 (MCM7) (from UniProt Q61881 1-719)
– | binds | MCM5 (protein, UniProt P49718 1-734) MSGFDDPGIFYSDSFGGDPGAEEGQARKSQLQRRFKEFLRQYRVGTDRTGFTFKYRDELKRHYNLGEYWIEVEMEDLASFDEELADHLHKQPAEHLQLLEEAAKEVADEVTRPRPAGDELLQDIQVMLKSDASPSSIRILKSDMMSHLVKIPGIIISASAVRAKATRISIQCRSCHNTLTNIAMRPGLEGYALPRKCNMDQAGRPKCPLDPYFIMPDKCKCVDFQTLKLQELPDAVPHGEMPRHMQLYCDRYLCDKVVPGNRVTIMGIYSIKKFGLNPSKGRDRVGVGIRSSYIRVLGIQVDTDGSGRSFAGSVSPQEEEEFRRLAALPNIYELISKSISPSIFGGMDMKKAIACLLFGGSRKRLPDGLTRRGDINLLMLGDPGTAKSQLLKFVEKCSPIGVYTSGKGSSAAGLTASVIRDPSSRNFIMEGGAMVLADGGVVCIDEFDKMREDDRVAIHEAMEQQTISIAKAGITTTLNSRCSVLAAANSVFGRWDETKGEDNIDFMPTILSRFDMIFIVKDEHNEERDMMLAKHVMTLHVSALTQTQAVEGEIDLAKMKKFIAYCRARCGPRLSAEAAEKLKNRYIIMRSGARQHERDSDRRSSIPITVRQLEAIVRIAEALSKMKLQPFATEADVEEALRLFQVSTLDAALSGNLSGVEGFTTQEDQEMLSRIEKQLKRRFAIGSQVSEHSIVQDFTKQKYPEHAIRKVLQLMLRRGEIQHRMQRKVLYRLK
– | binds | MCM3 (protein, UniProt P25206 1-812) MAGTVVLDDVELREAQRDYLDFLDDEEDQGIYQNKVRELISDNQYRLIVSVNDLRRKNEKRANRLLNNAFEELVAFQRALKDFVASIDATYAKQYEEFYIGLEGSFGSKHVSPRTLTSCFLSCVVCVEGIVTKCSLVRPKVVRSVHYCPATKKTIERRYSDLTTLVAFPSSSVYPTKDEENNPLETEYGLSVYKDHQTITIQEMPEKAPAGQLPRSVDVILDDDLVDKVKPGDRIQVVGTYRCLPGKKGCYTSGTFRTVLIACNVKQMSKDIQPAFSADDIAKIKKFSKTRSKDVFEQLARSLAPSIHGHDYVKKAILCLLLGGVERELENGSHIRGDINILLIGDPSVAKSQLLRYVLCTAPRAIPTTGRGSSGVGLTAAVTTDQETGERRLEAGAMVLADRGVVCIDEFDKMSDMDRTAIHEVMEQGRVTIAKAGIHARLNARCSVLAAANPVYGRYDQYKTPMENIGLQDSLLSRFDLLFIMLDQMDPEQDREISDHVLRMHQYRAPGEQDGDALPLGSSVDILATDDPDFTQDDQQDTRIYEKHDSLLHGTKKKKEKMVSAAFMKKYIHVAKIIKPTLTQESAAYIAEEYSRLRSQDSMSSDTARTSPVTARTLETLIRLATAHAKARMSKTVDLQDAEEAVELVQYAYFKKVLEKEKKRKKASEDESDLEDEEEKSQEDTEQKRKRRKTHAKDGESYDPYDFSEAETQMPQVHTPKTDDSQEKTDDSQETQDSQKVELSEPRLKAFKAALLEVFQEAHEQSVGMLHLTESINRNREEPFSSEEIQACLSRMQDDNQVMVSEGIVFLI
